Results published in patent US20210348119A1, “COMPOSITIONS AND METHODS FOR CELL CULTURE” (The United States of America as Represented By The …, priority 2018, published 2021).

Tested on: H9 cells
Assay: qHTS for survival of dissociated H9 cells (CellTiter-Glo, 24 hours after seeding)
Assay type: cell-based, human
Settings: curve class per Huang et al. 2011
Excerpt: FIG. 2 schematically illustrates qHTS procedure.
All the screed compounds were received pre-plated at the pre-determined concentrations. […] Curve classification is explained in Huang et al. “Chemical genomics profiling of environmental chemical modulation of human nuclear receptors” Environ. Health. Perspect.

Row | Structure (SMILES) | CC (curve class)
1 | O=S(=O)(NCC1CC1)c1ccc(Nc2nccc(N3CCCc4cc(O)ccc43)n2)cc1 [Pyrintegrin] | 2
2 | N#Cc1cc(F)cc(-c2nc(-c3ccccn3)no2)c1 [VU 0285683] | 4
3 | NS(=O)(=O)c1ccc(Nc2nc(OCC3CCCCC3)c3[nH]cnc3n2)cc1 [NU-6102] | 3
4 | COc1ccc2c(c1O)OC[C@H]1c3ccc(O)cc3O[C@@H]21 [NCGC00384860-01] | 2
5 | CC1=C(C(=O)Nc2cc3cn[nH]c3cc2F)C(c2ccc(C(F)(F)F)cc2)CC(=O)N1 (stereo not drawn) [GSK-429286A] | 1
6 | CC(C)[C@H](NC(=O)c1ccc2ccccc2n1)C(=O)N[C@@H](CC(=O)O)C(=O)COc1c(F)cccc1F [Q-VD-OPh hydrate] | 1
7 | N#Cc1cc(-c2ccnc(Nc3ccc(N4CCOCC4)cc3)n2)ccc1OC1CCOCC1 [IKK epsilon-IN-1] | 2
8 | CC[C@@](C)(Nc1ccnc(-c2c[nH]c3ncccc23)n1)C(=O)NCC(F)(F)F [Decernotinib] | 1
9 | Oc1cccc2c(O)nccc12 [1,5-Isoquinolinediol] | 3
10 | CC(C)(C)c1nc2c3cc[nH]c(=O)c3c3cc(F)ccc3c2[nH]1 [Pyridone 6] | 4
11 | Nc1nc2nc[nH]c2c(=S)[nH]1 [Tioguanine] | 4
12 | CCS(=O)(=O)N1CCN(c2ccc(Nc3ncc(C(N)=O)c(NC4CC4)n3)cc2)CC1 [Cerdulatinib] | 1
13 | O=S(=O)(c1cccc2cnccc12)N1CCNCC1 [HA-100] | 2
14 | C=C(CO)C(=O)O[C@H]1CC(=C)[C@@H]2C[C@H](O)C(=C)[C@@H]2[C@H]2OC(=O)C(=C)[C@@H]21 [NCGC00168845-02] | 2
15 | NC[C@@](O)(c1ccc(Cl)cc1)c1ccc(-c2cn[nH]c2)cc1 [AT-13148] | 1
16 | Cc1[nH]c2ccccc2c1CCNC(=O)c1cccs1 [CK-636] | 4
17 | CCn1c(-c2nonc2N)nc2cncc(CNC3CCNCC3)c21 [SB-747651-A] | 1
18 | Cl.NC(N)=NCCNS(=O)(=O)c1cccc2cnccc12 [HA-1004 hydrochloride] | 1
19 | c1ccc2c3c([nH]c2c1)CNCC3 [tryptoline] | −1
20 | Cl.Cl.Fc1ccccc1CNCc1ccc(-c2ccnc3[nH]ccc23)cc1 [OXA 06 dihydrochloride] | 1
21 | CCn1c(-c2nonc2N)nc2cnc(Oc3cccc(NC(=O)c4ccc(OCCN5CCOCC5)cc4)c3)cc21 [GSK-269962A] | 2
22 | C/C=C/C(=O)C(C)C1=CC(=O)C2=C(OC34CC[C@H](O)C(C)(C)[C@@H]3CC[C@H](C)C4(C)C2)C1=O (stereo partly drawn) [podosporin A] | 4

Row | Structure (SMILES) | CC (curve class)
23 | Cn1c(=O)c2c(ncn2CC2OCCO2)n(C)c1=O [Doxofylline] | 4
24 | CNCCC(Oc1ccc(C(F)(F)F)cc1)c1ccccc1 (stereo not drawn) [Fluoxetine hydrochloride] | 4
25 | C[C@]12C[C@@H](O)[C@H]3[C@@H](CC[C@@H]4C[C@@H](O)CC[C@@]43CO)[C@@]1(O)CC[C@@H]2C1=CC(=O)OC1 [19-hydroxysarmentogenin] | 4
26 | Cc1c(O)c(O)cc2c1CC=C1[C@@]2(C)CC[C@@]2(C)[C@@H]3C[C@](C)(C(=O)O)CC[C@]3(C)CC[C@]12C [DIHYDROCELASTROL] | 2
27 | CN1CCN(c2nc(C3=C(c4c[nH]c5ccccc45)C(=O)NC3=O)c3ccccc3n2)CC1 [Sotrastaurin] | 2
28 | C[C@@H]1O[C@@H](OC2C(O[C@H]3[C@H](O[C@H]4CC[C@@]5(C)C(CC[C@]6(C)C5CC=C5C7CC(C)(C)CC(O)[C@]7(C)CC[C@]56C)C4(C)C)O[C@H](C(=O)O)[C@@H](O)[C@@H]3O)OC(CO)C(O)C2O)[C@H](O)[C@H](O)[C@H]1O (stereo partly drawn) [NCGC00381003-01] | 2
29 | COc1cc2nc(-c3cc(F)ccc3O)nc(N[C@@H]3CNC[C@H]3C(C)(C)O)c2cc1OC [CCT-241533] | 3
30 | Cl.O=c1[nH]c([C@@H]2CCCN2)nc2c1oc1ccc(Cl)cc12 [BMS-863233 (XL-413)] | 2
31 | CCCC1(C)C(C#N)(C#N)C1(C#N)C#N [CCG-2046] | 2
32 | C=C1CC[C@@H]2[C@@](C)(CO[C@@H]3O[C@H](CO)[C@@H](O)[C@H](O)[C@H]3O)[C@H](O)CC[C@@]2(C)[C@@H]1CC/C(C)=C/CO[C@@H]1O[C@H](CO)[C@@H](O)[C@H](O)[C@H]1O [NCGC00385284-01] | −1
33 | CN1CCN(c2cccc(Nc3nc4c(-c5ccc(S(C)(=O)=O)cc5)cccn4n3)c2)CC1 [CEP-33779] | 1
34 | N#Cc1cccc(-c2c[nH]c3ncnc(N4CCOCC4)c23)c1 [PF-06447475] | 3
35 | COc1ccccc1-c1c[nH]c2ncc(-c3cncc(C(=O)N(C)C)c3)cc12 [PPY A] | 3
36 | CN(C)CCOc1cc(-c2cn[nH]c2)ccc1NC(=O)C1COc2ccccc2O1 (stereo not drawn) [SR-3677] | 1
37 | CCC(=O)N1CCN(c2ccc(-n3c(=O)ccc4cnc5ccc(-c6cnc7ccccc7c6)cc5c43)cc2C(F)(F)F)CC1 [Torin-1] | 2
38 | O=C(Nc1ccc2[nH]ncc2c1)C1CCC1 [Rhodblock 6] | 3
39 | C=C1[C@@H](C)[C@H]2[C@H](Cc3ccccc3)NC(=O)[C@]23OC(=O)/C=C/[C@H](O)CCC[C@@H](C)C/C=C/[C@H]3[C@@H]1O [Cytochalasin B] | 3
40 | C=C(NC(=O)C(=C)NC(=O)c1csc(C2=N[C@@H]3c4csc(n4)[C@H]4NC(=O)c5csc(n5)[C@H]([C@](C)(O)[C@@H](C)O)NC(=O)[C@H]5CSC(=N5)/C(=C/C)NC(=O)[C@H]([C@@H](C)O)NC(=O)c5csc(n5)[C@]3(CC2)NC(=O)[C@H](C)NC(=O)C(=C)NC(=O)[C@H](C)NC(=O)[C@H]([C@@H](C)CC)N[C@@H]2C=Cc3c([C@H](C)O)cc(nc3[C@H]2O)C(=O)O[C@@H]4C)n1)C(N)=O [Thiostrepton from Streptomyces azureus, Thiostrepton] | 2
41 | CNc1ccc([N+](=O)[O-])c(Nc2ccc3[nH]ncc3c2)n1 [KRIBB11] | 1
42 | Cn1c2ccccc2c2c3c(c4c5ccccc5n(CCC#N)c4c21)CNC3=O [Go-6976] | 2
43 | CC1(C)CC[C@]2(C(=O)O[C@@H]3O[C@H](CO[C@@H]4O[C@H](CO)[C@@H](O)[C@H](O)[C@H]4O[C@@H]4O[C@H](CO)[C@H](O)[C@H](O)[C@H]4O)[C@@H](O)[C@H](O[C@@H]4O[C@H](CO)[C@@H](O)[C@H](O)[C@H]4O)[C@H]3O)CC[C@]3(C)C(=CCC4[C@@]5(C)CC[C@H](O[C@@H]6OC[C@@H](O)[C@H](O)[C@H]6O)[C@@](C)(C(=O)O)C5CC[C@]43C)[C@@H]2C1 (stereo partly drawn) [NCGC00384798-01] | 4
44 | O=C(NCc1ccccc1)c1csc(Nc2ccncn2)n1 [Thiazovivin] | 1

Row | Structure (SMILES) | CC (curve class)
45 | C/C=C(/C)C(=O)O[C@H]1C(C)=C[C@]23C(=O)[C@@H](C=C(CO)[C@@H](O)[C@]12O)[C@H]1[C@@H](C[C@H]3C)C1(C)C [Ingenol mebutate] | 1
46 | CCCCC1C(=O)N(c2ccccc2)N(c2ccc(O)cc2)C1=O (stereo not drawn) [OXYPHENBUTAZONE] | 2
47 | CC(C)CCC(=O)CC1c2ccccc2C(=O)N1c1ccc2ccc(Cl)nc2n1 (single isomer, unassigned; (+)) [(+)-Pagoclone] | 4
48 | CCCCOc1c(C(=O)c2c(F)cc(C)cc2F)c[nH]c2nncc1-2 [BMS-265246] | 1
49 | Clc1ccc(C2(c3ccc(-c4cn[nH]c4)cc3)CCNCC2)cc1 [AT-7867] | 1
50 | CC(C)(C)c1nc(-c2cccc(NS(=O)(=O)c3c(F)cccc3F)c2F)c(-c2ccnc(N)n2)s1 [Dabrafenib] | 2
51 | Cl.O=c1[nH]ccc2cc(OC3CCNCC3)ccc12 [SAR407899 (hydrochloride)] | 1
52 | O=C(NCc1cccc(O)c1)c1cc2cc(F)ccc2[nH]1 [KX1-004] | 1
53 | CC1=NN(c2ccccc2)C(=O)C1 [Edaravone] | 4
54 | CC1=C(C(=O)Nc2cc3cn[nH]c3cc2F)C(c2ccc(Cl)cc2F)N=C(c2ccnc(Cl)c2)N1 (stereo not drawn) [GSK-25] | 1
55 | COc1c(Nc2ncc(Cl)c(N[C@H]3[C@@H](C(N)=O)[C@@H]4C=C[C@H]3C4)n2)ccc2c1CC[C@@H](N1CCOCC1)CC2 [CEP-28122] | 1
56 | Cl.Cl.O=S(=O)(NCCNC/C=C/c1ccc(Br)cc1)c1cccc2cnccc12 [H-89] | 4
57 | C[C@H](NC(=O)C(=O)Nc1ccccc1C(C)(C)C)C(=O)N[C@@H](CC(=O)O)C(=O)COc1c(F)c(F)cc(F)c1F [Emricasan, 3-(2-(2-tert-butylphenylaminooxalyl)aminopropionylamino)-4-oxo-5-(2,3,5,6-tetrafluorophenoxy)pentanoic acid] | 3
58 | C[C@@H](N)c1ccc(C(=O)Nc2ccnc3[nH]ccc23)cc1 [Y-39983] | 1
59 | CC1CN(S(=O)(=O)c2cccc3cnccc23)CCN1.Cl.Cl (stereo not drawn) [1-05-IsoquinolinylstilfonyI)-3-methylpiperazine dihydroehloride] | 3
60 | NC1(Cc2ccc(Cl)cc2)CCN(c2ncnc3[nH]ccc23)CC1 [CCT-128930] | 3
61 | O=c1[nH]c2ccc(Cl)cc2c(N[C@@H]2CN3CCC2CC3)c1-c1nc2ccccc2[nH]1 [CHIR-124] | 4
62 | Cc1c[nH]c2ncnc(N3CCC(CN)(C(=O)Nc4cccc(OC(=O)N(C)C)c4)CC3)c12 [LX-7101] | 4
63 | Cc1cnc(Nc2ccc(OCCN3CCCC3)cc2)nc1Nc1cccc(S(=O)(=O)NC(C)(C)C)c1 [TG-101348] | 3
64 | CNS(=O)(=O)C[C@H]1CC[C@H](N(C)c2ncnc3[nH]ccc23)CC1 [Oclacitinib (PF-03394197), Oclacitinib] | 3
65 | O=C(NCc1cccc(O)c1)Nc1nc(-c2ccncc2)cs1 [RKI-1447] | 1
66 | CC(C)CC(=O)OC1OC=C(CO[C@@H]2O[C@H](CO)[C@@H](O)[C@H](O)[C@H]2O)C2CC(O)C(O)(CO)C12 (stereo partly drawn) [NCGC00347879-02] | 4

Where a name gives a salt, the structure may show the parent alone.
